At least one compound was matched to its structure with a doubt left.
Tests used:
Type in all cases: cell-based, human
[1] = system: AKT; test: Western blot of phospho-Akt S473 in A549 cells; conditions: inhibitors 1 hour before LPS/IFN-γ
Method: A549 cells were treated without or with 100 mcM LY303511, 200 ng/ml rapamycin, or 50 nM wortmannin in serum free media for 1 hour before addition of E. coli lipopolysaccharide (LPS), […] and interferon (IFN)-γ, 100 U/ml (LPS/IFN-γ or “L/I”). Cells were homogenized and the indicated proteins (see Table 1) were detected by Western blot. Western blots are from the same experiment, and representative of three experiments.
Measurement of protein phosphorylation: A549 cells were incubated in serum-free medium without or with inhibitors for 1 hour, as indicated, before incubation for 30 minutes with a mixture of LPS, 100 μg/ml (Sigma; St. Louis, Mo.) and IFN-γ, 100 U/ml (Roche; Nutley, N.J.). PASM cells were incubated in serum-free medium without or with inhibitors for 24 h as indicated, before incubation for 30 min with 10% FBS. A549 or PASM cells were washed once with cold PBS and incubated for 15 minutes on ice ih lysis buffer (20 mM Tris pH 8.0, 1% Nonidet P-40, 1 mM EDTA, 5 mM benzamidine, aprotinin, 10 μg/ml, leupeptin, 10 μg/ml, trypsin soybean inhibitor, 1 mM PMSF, 50 mM sodium fluoride, 100 μM sodium orthovanadate, and 1: 100 Sigma phosphatase inhibitor set I containing cantharidin, microcystin LR and bromotetramizole). […] Integrated band densities were quantified using Scion Image beta 3b software.

[2] = system: A549 cells; test: A549 cell count after 24 hours with inhibitors; conditions: 100 μM LY303511, rapamycin 200 ng/ml, 200 nM wortmannin, 100 μM LY294002
Method: FIG. 2A is a bar graph showing LY303511 blocks cell proliferation, DNA synthesis, and cell cycle progression in A549 cells. A. A549 cells (80,000 cells per 35-mm dish) were grown for 1 day in medium with FBS before the addition of 0.1% DMSO, 100 μM LY303511, rapamycin, 200 ng/ml, 200 nM wortmannin, or 100 μM LY294002 for 24 hours. Cells were then incubated with trypsin, collected, and counted. Data are the means of cells/well×10^−4 ±SEM from duplicate assays in three experiments. *p<0.05 by Student's t-test. FIG. 2B is a line graph from results obtained when A549 cells (4,000 per well) in 96-well plates were grown in medium with FBS for 24 h before the addition of […] plus 0-200 μM LY303511 without or with rapamycin, 200 ng/ml, or with rapamycin alone (0-200 ng/ml). BrDU incorporation (absorbance at 490/465) was measured by in situ ELISA as per the manufacturer's instructions (BrDU detection kit, Roche). For each experiment, BrDU in cells incubated with inhibitors was expressed as a percentage of that in cells treated with 0.2% DMSO control (% control). Mean absorbance measures for controls=100% in each experiment were 0.9±0.3, 0.8±0.3, and 0.8±0.3. […]
Additionally, A549 cells (80,000 cells per well), were grown for 24 hours before addition of inhibitors (FIG. 2A). After 24 hours, trypan blue-stained cells were counted using a hemocytometer. […]

[3] = system: PASM cells; test: BrDU incorporation (in situ ELISA) in PASM cells
Method: PASM cells (4,000 per well) were grown in 96-well plates for 24 hours before incubation for 24 hours in medium with (FIG. 4C) or without 10% FBS (FIG. 4D). Cells were then incubated in fresh medium containing 10% FBS, 10 μM BrDU, and 0-100 μM LY303511 without or with rapamycin, 200 or 400 ng/ml, for 24 hours BrDU incorporation was measured by in situ ELISA as per the manufacturer's instructions (BrDU detection kit, Roche). For each experiment, BrDU content of cells incubated with inhibitors was expressed relative to that in cells incubated with 0.1% DMSO control (% control). Mean control (=100%) absorbance for each experiment using cells from different donors was 0.22±0.06 and 0.24±0.06 for FIG. 4C and FIG. 4D, respectively (=100%). Data are means of BrDU values ±SEM from 3 experiments with assays in sextuplet. *p<0.05 vs. DMSO control, or †p<0.05 vs. 10 μM LY303511, by Student's t-test.
Measurement of cell proliferation:. Cell proliferation, or DNA synthesis, was estimated using an in situ 5-bromo-2-deoxy-uridine (BrDU) detection kit as per the manufacturer's instructions (Roche Diagnostics; Nutley, N.J.). Briefly, A549 or PASM cells (4,000/well) were seeded in 96-well plates, and grown for 24 hours in the presence of serum. 10 mM BrDU was added for 24 hours without or with inhibitors as indicated. In some experiments, PASM cells were incubated in serum-free medium for an additional 24 h before addition of BrDU and inhibitors. Cells were fixed, and BrDU was detected using a peroxidase-conjugated anti-BrDU antibody. The measured absorbance data in cells treated with inhibitors were normalized to those treated with DMSO control (% control).

For `CO[C@H]1C[C@@H]2CC[C@@H](C)[C@@](O)(O2)C(=O)C(=O)N2CCCC[C@H]2C(=O)O[C@H]([C@H](C)C[C@@H]2CC[C@@H](O)[C@H](OC)C2)CC(=O)[C@H](C)/C=C(\C)[C@@H](O)[C@@H](OC)C(=O)[C@H](C)C[C@H](C)/C=C/C=C/C=C/1C` [rapamycin, reference compound], the “phosphorylation of AKT (S473)” value [1] was “increase phosphorylation of AKT”, the “cell proliferation (cell number)” value [2] was “slightly attenuated cell proliferation” and the “proliferation (BrDu incorporation)” value ([3]; PASM cells in serum-free medium for 24 h before addition of FBS (FIG. 4D), compared with serum pre-incubation) was “enhanced”. The “proliferation (BrDu incorporation)” value ([3]; PASM cells incubated with serum before addition of inhibitors (FIG. 4C)) was “little effect on proliferation”.

In the case of `COC[C@H]1OC(=O)c2coc3c2[C@@]1(C)C1=C(C3=O)[C@@H]2CCC(=O)[C@@]2(C)C[C@H]1OC(C)=O` [wortmannin], the “phosphorylation of AKT (S473)” value [1] is reported as “inhibits the phosphorylation of pAKT”, the “cell proliferation (cell number)” value [2] is reported as “did not significantly reduce A549 cell proliferation” and the “proliferation (BrDu incorporation)” value ([3]; PASM cells, FIG. 4C, D, combination compared with 10 μM LY303511 alone) is reported as “did not inhibit cell proliferation”.

— patent US8044057B2, “Methods for suppressing an immune response or treating a proliferative disorder” (The United States of America as represented by the …, priority 2003, dated 2011)
